No constants are given. Whether binding was seen depends on the method and setting. Binding seen in cells or lysates may run through a third protein. Some binding calls cover weakened binding; strength is not graded here. For part of these data: Where a sequence is shown, tags or fusion partners need not be part of it. Each block holds one molecule with its values, some of them ahead of it.
How the values were obtained:
[1] = molecular target: T1, A20, endogenous in Jurkat T cells (human (endogenous in Jurkat)) (UniProt P21580); test: co-IP; endogenous proteins of Jurkat T cells; anti-A20 or anti-RNF114 antibodies cross-linked to Protein-G; lysis in 1% Igepal CA-630 buffer; unstimulated or stimulated with TNFα or CD3/CD28 antibodies
T1 sequence: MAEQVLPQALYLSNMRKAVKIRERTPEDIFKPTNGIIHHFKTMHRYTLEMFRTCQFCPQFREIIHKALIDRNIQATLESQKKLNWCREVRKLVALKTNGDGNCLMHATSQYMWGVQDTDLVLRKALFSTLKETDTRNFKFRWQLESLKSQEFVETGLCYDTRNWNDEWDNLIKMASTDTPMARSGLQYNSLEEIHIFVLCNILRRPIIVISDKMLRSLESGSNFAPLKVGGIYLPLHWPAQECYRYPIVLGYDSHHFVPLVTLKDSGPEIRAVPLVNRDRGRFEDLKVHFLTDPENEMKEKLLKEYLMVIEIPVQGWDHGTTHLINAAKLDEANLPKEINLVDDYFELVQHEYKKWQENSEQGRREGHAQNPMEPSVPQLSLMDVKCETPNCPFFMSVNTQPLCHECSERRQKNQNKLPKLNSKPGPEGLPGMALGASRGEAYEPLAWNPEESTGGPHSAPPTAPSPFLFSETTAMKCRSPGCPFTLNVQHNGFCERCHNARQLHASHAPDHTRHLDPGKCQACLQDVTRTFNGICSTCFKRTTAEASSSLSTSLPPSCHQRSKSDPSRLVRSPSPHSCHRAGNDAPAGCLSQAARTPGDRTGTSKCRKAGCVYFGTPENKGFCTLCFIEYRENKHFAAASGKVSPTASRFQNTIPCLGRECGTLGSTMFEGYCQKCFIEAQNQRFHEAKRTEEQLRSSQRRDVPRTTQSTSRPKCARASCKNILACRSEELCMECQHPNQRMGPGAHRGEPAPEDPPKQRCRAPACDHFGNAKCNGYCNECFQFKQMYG

The chains behind the UniProt entries cited, without tags or fusion partners.
UniProt Q9Y508: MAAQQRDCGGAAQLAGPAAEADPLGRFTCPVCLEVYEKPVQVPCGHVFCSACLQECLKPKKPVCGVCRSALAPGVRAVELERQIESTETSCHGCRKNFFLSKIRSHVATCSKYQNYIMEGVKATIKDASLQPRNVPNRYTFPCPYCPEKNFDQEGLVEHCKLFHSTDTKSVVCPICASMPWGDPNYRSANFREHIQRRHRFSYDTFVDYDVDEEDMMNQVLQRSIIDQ

GST-A20 = molecular target: T2, GST-A20 (UniProt P21580); test: pull-down; GST-A20 or GST fusion proteins with lysates of HEK293 cells overexpressing FLAG-RNF114 or FLAG-A20; only the target purified
T2 sequence: T1 sequence

AU5-RNF114 (human) = AU5-RNF114 (human) (UniProt Q9Y508); test: co-IP; HEK293 cells transfected with forms of FLAG-A20 and AU5-RNF114; anti-AU5 immunoprecipitation (Protein-G cross-linked with antibody); lysis in 1% Igepal CA-630 buffer; with or without TNFα for 20 min

binding [1]: binds
Molecule: RNF114, endogenous in Jurkat T cells (from UniProt Q9Y508 1-228)

binding (GST-A20): binds
Molecule: FLAG-RNF114 (from UniProt Q9Y508 1-228)

binding (AU5-RNF114 (human)): binds
B1: FLAG-A20 C-terminal (390-790) (domain or fragment, UniProt P21580 390-790)
chain: PNCPFFMSVNTQPLCHECSERRQKNQNKLPKLNSKPGPEGLPGMALGASRGEAYEPLAWNPEESTGGPHSAPPTAPSPFLFSETTAMKCRSPGCPFTLNVQHNGFCERCHNARQLHASHAPDHTRHLDPGKCQACLQDVTRTFNGICSTCFKRTTAEASSSLSTSLPPSCHQRSKSDPSRLVRSPSPHSCHRAGNDAPAGCLSQAARTPGDRTGTSKCRKAGCVYFGTPENKGFCTLCFIEYRENKHFAAASGKVSPTASRFQNTIPCLGRECGTLGSTMFEGYCQKCFIEAQNQRFHEAKRTEEQLRSSQRRDVPRTTQSTSRPKCARASCKNILACRSEELCMECQHPNQRMGPGAHRGEPAPEDPPKQRCRAPACDHFGNAKCNGYCNECFQFKQMYG
